From PMC3005981 (Basic & clinical pharmacology & toxicology, 2010)

Target: T1, CYP2B6 (Homo sapiens, UniProt P20813)
T1 sequence (P20813 1-491): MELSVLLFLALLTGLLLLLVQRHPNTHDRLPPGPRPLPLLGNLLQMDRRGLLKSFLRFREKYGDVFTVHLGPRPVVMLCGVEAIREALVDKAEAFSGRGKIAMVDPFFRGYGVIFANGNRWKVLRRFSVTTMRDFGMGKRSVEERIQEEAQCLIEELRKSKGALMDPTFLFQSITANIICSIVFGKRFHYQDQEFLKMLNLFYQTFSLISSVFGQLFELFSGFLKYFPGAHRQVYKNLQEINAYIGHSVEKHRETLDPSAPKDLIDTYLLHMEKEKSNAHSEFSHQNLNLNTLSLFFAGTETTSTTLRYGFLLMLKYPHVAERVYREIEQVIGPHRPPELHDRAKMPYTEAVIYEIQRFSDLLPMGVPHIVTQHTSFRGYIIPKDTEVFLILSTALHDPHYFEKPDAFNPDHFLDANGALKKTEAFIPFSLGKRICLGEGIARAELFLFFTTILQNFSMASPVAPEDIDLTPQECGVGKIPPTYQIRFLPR
Experiment: in vitro
Conditions: recombinant enzyme, Supersome

Cc1ccccc1C(OCCN(C)C)c1ccccc1 (centres unmarked) [Orphenadrine, orphenadrine]
inhibition at 15 min, 100 µM (% Inhibition of (R)-EDDP production): 44.9%
inhibition at 15 min, 100 µM (% Inhibition of (S)-EDDP production): 43%
